Test results: US10155990B2, “Method for predicting therapeutic efficacy of PI3K/AKT/mTOR inhibitor on basis of PHLDA1 or PIK3C2B expression” (Taiho Pharmaceutical Co., Ltd., priority 2013, dated 2018)
At least one compound was matched to its structure with a doubt left.

System: panel of 240 cell lines composed of various cancers
Experiment: GI50 versus PHLDA1/PIK3C2B expression in a panel of 240 cell lines (OncoPanel, Ricerca Biosciences)
Format: cell-based
Conditions: panel of 240 cell lines of various cancers
Text: It was also examined whether the expression level of PHLDA1 or PIK3C2B has a correlation with the sensitivity to PI3K/AKT/mTOR inhibitors in a panel of 240 cell lines (OncoPanel™, Ricerca Biosciences) composed of various cancers such as lung cancer, kidney cancer, liver cancer, pancreatic cancer, large bowel cancer, bladder cancer, breast cancer, head and neck cancer, prostate cancer, skin cancer, blood cancer, and malignant lymphoma.

CO[C@H]1C[C@@H]2CC[C@@H](C)[C@@](O)(O2)C(=O)C(=O)N2CCCC[C@H]2C(=O)O[C@H]([C@H](C)C[C@@H]2CC[C@@H](O)[C@H](OC)C2)CC(=O)[C@H](C)/C=C(\C)[C@@H](O)[C@@H](OC)C(=O)[C@H](C)C[C@H](C)/C=C/C=C/C=C/1C [sirolimus]
Correlation between logarithm of GI50 and logarithm of expression level of PHLDA1: significant correlation | Correlation between logarithm of GI50 and logarithm of expression level of PIK3C2B: significant correlation
